{
  "sequences": {"note": "By UniProt entry, the sequences of proteins in these tests, tags left out.", "UniProt Q16539, whole entry": "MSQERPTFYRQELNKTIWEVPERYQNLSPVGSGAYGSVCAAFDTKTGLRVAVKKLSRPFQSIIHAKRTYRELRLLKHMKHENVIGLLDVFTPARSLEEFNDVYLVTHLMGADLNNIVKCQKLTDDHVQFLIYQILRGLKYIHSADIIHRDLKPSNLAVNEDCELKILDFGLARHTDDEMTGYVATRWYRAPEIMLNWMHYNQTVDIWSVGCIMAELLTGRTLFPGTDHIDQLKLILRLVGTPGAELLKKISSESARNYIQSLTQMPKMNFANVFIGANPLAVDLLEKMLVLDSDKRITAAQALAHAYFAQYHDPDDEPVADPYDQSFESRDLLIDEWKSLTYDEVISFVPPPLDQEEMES"},
  "source": "patent US9315503B2",
  "about": "“Kinase inhibitors” (CHIESI FARMACEUTICI S.p.A., priority 2011, dated 2016)",
  "key": {"p38alpha": {"molecular_target": "T1, p38alpha (Homo sapiens, UniProt Q16539)", "T1 construct": "purchased Invitrogen PV3304", "test": "P38Alpha enzyme inhibition assay (Alphascreen kinase activity assay)", "type": "biochemical", "conditions": "100 pM p38alpha, 250 μM ATP, 2 hours pre-incubation at 25° C., read-out: p38α inhibition (IC50 values)", "experimental": "P38Alpha Enzyme Inhibition Assay.\nThe inhibitory activity of compounds was determined using an Alphascreen® (Perkin Elmer) based kinase activity assay. Kinase reactions consisted of 25 mM HEPES pH 7.5, 10 mM MgCl2, 100 μM Na3VO4, 2 mM DTT, 0.05 mg/ml Tween 20, 100 pM p38alpha (Invitrogen, PV3304), 1% DMSO and 0.3 μg/ml ATF-2 fusion protein (New England Biolabs, 9224). Compounds were incubated under these conditions for 2 hours, at 25° C., prior to the initiation of the kinase activity by the addition of the 250 μM ATP. Reaction volumes were 20 uL. After 1 hr at 25° C. reactions were stopped by the adding 10 uL of 25 mM HEPES pH 7.5 containing 62.5 mM EDTA, 0.05% Triton X-100, 10% BSA and 0.83 ng/uL anti-phospho-ATF2 antibody (Abeam, ab28812). Detection was performed by measuring luminescence following the addition of Alphascreen Donor beads (Perkin Elmer 6765300) and Protein A Alphascreen Acceptor beads (Perkin Elmer 6760137), both at a final concentration of 20 ug/ml. IC50 values were determined from concentration-response curves."}, "[1]": {"test_system": "LPS-stimulated TNFα release from PBMCs", "test": "LPS-stimulated PBMC TNFα release assay", "type": "cell-based", "conditions": "inhibition of TNFα release, human PBMCs, LPS 10 ng/ml, 18 h, ELISA; read-out: p38α inhibition (IC50 values)", "experimental": "LPS-Stimulated PBMC TNFα Release Assay.\nPeripheral Blood Mononuclear Cells (PBMCs) were isolated from healthy human volunteer blood using a standard density gradient centrifugation technique. Citrated blood was placed onto Histopaque™ and centrifuged. The PBMCs were removed from the density gradient interface and washed in phosphate buffered saline (PBS). The PBMCs were suspended in RPMI 1640 medium (without serum), dispensed into a 96-well plate and incubated at 37° C. for 3 h in a humidified incubator. After incubation, the medium was replaced (with medium containing 1% foetal bovine serum) and the plate incubated at 37° C., for 1 h, in the presence of test compound or the appropriate vehicle. LPS (10 ng/ml), or an appropriate vehicle control, was then added to the cells and the plate returned to the incubator for 18 h. Cell-free supernatants were removed and assayed for TNFα levels using an ELISA kit from R&D Systems.\nA dose response curve to each test compound was performed and the effect of compound in each experiment was expressed as a percentage inhibition of the control TNFα release. Dose response curves were plotted and compound potency (IC50) was determined. Compounds were tested in at least three separate experiments."}},
  "note": "Some results were stated once for a whole list of compounds, not compound by compound.",
  "data": [
    {"substance": "1-(5-tert-Butyl-2-p-tolyl-2H-pyrazol-3-yl)-3-{(1S,4R)-4-[3-((R)-1-morpholin-4-yl-ethyl)-[1,2,4]triazolo[4,3-a]pyridin-6-yloxy]-1,2,3,4-tetrahydro-naphthalen-1-yl}-urea and 1-(5-tert-Butyl-2-p-tolyl-2H-pyrazol-3-yl)-3-{(1S,4R)-4-[3-((S)-1-morpholin-4-yl-ethyl)-[1,2,4]triazolo[4,3-a]pyridin-6-yloxy]-1,2,3,4-tetrahydro-naphthalen-1-yl}-urea [Example 46]", "values": [
      {"measurement": "IC50", "setting": "p38alpha", "result": "< 10", "unit": "nM"},
      {"measurement": "IC50", "setting": "[1]", "result": "< 10", "unit": "nM"}
    ]}
  ]
}
